This note sets out measurements from paper doi:10.1101/459594.

No constants are given. Whether binding was seen depends on the method and setting. In cells and extracts the contact can be indirect. Some results given as binding are weak or reduced against the parent protein; the word gives no strength. For some of these results: Sequences can lack the tags named with a protein.

Holding throughout (assay): co-IP
The target in assay [1] is T1, Spc105^222::mCherry (budding yeast) (UniProt P53148).
T1 sequence: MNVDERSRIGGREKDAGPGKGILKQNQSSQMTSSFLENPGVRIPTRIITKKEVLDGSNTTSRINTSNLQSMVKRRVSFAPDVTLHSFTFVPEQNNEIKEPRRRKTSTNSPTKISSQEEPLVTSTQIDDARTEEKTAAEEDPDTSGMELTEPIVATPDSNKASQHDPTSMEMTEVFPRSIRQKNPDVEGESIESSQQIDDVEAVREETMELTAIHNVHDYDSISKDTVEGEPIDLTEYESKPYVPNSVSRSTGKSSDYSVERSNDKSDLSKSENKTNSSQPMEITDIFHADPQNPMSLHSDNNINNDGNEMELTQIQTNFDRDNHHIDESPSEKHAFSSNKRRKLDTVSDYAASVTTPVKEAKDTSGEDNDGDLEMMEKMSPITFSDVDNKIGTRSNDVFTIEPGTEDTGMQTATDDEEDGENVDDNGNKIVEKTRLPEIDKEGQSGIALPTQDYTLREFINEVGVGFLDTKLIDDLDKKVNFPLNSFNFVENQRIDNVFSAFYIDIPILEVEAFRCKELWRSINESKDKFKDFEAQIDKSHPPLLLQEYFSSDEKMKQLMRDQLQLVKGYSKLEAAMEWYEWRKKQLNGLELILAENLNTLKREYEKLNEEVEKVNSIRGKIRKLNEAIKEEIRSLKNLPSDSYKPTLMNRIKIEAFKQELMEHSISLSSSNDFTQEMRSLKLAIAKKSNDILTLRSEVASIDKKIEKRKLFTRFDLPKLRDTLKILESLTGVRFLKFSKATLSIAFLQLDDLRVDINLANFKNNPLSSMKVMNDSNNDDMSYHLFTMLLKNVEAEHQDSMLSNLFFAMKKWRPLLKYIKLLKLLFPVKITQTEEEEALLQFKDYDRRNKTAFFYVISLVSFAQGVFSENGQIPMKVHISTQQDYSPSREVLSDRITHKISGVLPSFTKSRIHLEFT

The target of assay [2] is T2, Dsn1-His-Flag (budding yeast), P40568.
T2 chain: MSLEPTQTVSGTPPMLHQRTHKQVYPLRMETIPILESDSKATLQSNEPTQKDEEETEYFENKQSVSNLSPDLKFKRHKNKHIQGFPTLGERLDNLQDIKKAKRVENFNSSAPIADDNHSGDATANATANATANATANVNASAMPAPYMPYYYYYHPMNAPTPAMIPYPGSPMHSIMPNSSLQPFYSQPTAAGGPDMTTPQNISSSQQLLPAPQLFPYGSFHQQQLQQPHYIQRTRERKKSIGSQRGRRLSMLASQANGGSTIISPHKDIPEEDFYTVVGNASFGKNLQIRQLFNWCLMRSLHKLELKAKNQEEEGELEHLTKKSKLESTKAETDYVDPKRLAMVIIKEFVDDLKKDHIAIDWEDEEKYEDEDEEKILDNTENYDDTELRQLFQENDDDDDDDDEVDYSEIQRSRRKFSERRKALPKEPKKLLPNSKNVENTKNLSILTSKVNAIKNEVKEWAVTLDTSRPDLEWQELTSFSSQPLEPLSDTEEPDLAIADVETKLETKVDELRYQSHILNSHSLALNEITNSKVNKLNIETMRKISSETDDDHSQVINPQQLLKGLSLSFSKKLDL
As to conditions: remark: other sources report otherwise.

The target of assay [3] is T3, Dsn1-His-Flag (budding yeast) (UniProt P40568).
T3 sequence: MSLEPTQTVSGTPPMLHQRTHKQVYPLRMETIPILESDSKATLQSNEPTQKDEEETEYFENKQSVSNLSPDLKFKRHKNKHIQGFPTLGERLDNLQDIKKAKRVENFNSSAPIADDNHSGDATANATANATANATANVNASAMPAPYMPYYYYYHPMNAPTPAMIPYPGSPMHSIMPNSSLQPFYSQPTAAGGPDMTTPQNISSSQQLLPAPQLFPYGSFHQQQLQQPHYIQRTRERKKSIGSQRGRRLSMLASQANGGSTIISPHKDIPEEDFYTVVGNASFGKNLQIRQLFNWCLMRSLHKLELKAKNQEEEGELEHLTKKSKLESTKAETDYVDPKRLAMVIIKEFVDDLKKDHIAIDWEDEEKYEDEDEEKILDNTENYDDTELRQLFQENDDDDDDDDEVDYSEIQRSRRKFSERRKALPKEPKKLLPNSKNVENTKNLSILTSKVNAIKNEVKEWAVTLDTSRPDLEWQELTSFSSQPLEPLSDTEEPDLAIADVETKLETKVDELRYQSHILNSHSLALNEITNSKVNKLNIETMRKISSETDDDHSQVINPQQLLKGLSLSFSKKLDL

Consider “Glc7-3xGFP (from UniProt P32598 1-312) (enzyme)”, for which, in assay [1], the binding result is “binds”.

B1: Glc7-3xGFP, P32598 1-312 (enzyme)
chain: MDSQPVDVDNIIDRLLEVRGSKPGQQVDLEENEIRYLCSKARSIFIKQPILLELEAPIKICGDIHGQYYDLLRLFEYGGFPPESNYLFLGDYVDRGKQSLETICLLLAYKIKYPENFFILRGNHECASINRIYGFYDECKRRYNIKLWKTFTDCFNCLPIAAIIDEKIFCMHGGLSPDLNSMEQIRRVMRPTDIPDVGLLCDLLWSDPDKDIVGWSENDRGVSFTFGPDVVNRFLQKQDMELICRAHQVVEDGYEFFSKRQLVTLFSAPNYCGEFDNAGAMMSVDESLLCSFQILKPAQKSLPRQAGGRKKK
For the molecule B1, in assay [2], the binding result is listed as “binds”.

B2: Spc105^222::mCherry (protein, UniProt P53148 1-917)
chain: MNVDERSRIGGREKDAGPGKGILKQNQSSQMTSSFLENPGVRIPTRIITKKEVLDGSNTTSRINTSNLQSMVKRRVSFAPDVTLHSFTFVPEQNNEIKEPRRRKTSTNSPTKISSQEEPLVTSTQIDDARTEEKTAAEEDPDTSGMELTEPIVATPDSNKASQHDPTSMEMTEVFPRSIRQKNPDVEGESIESSQQIDDVEAVREETMELTAIHNVHDYDSISKDTVEGEPIDLTEYESKPYVPNSVSRSTGKSSDYSVERSNDKSDLSKSENKTNSSQPMEITDIFHADPQNPMSLHSDNNINNDGNEMELTQIQTNFDRDNHHIDESPSEKHAFSSNKRRKLDTVSDYAASVTTPVKEAKDTSGEDNDGDLEMMEKMSPITFSDVDNKIGTRSNDVFTIEPGTEDTGMQTATDDEEDGENVDDNGNKIVEKTRLPEIDKEGQSGIALPTQDYTLREFINEVGVGFLDTKLIDDLDKKVNFPLNSFNFVENQRIDNVFSAFYIDIPILEVEAFRCKELWRSINESKDKFKDFEAQIDKSHPPLLLQEYFSSDEKMKQLMRDQLQLVKGYSKLEAAMEWYEWRKKQLNGLELILAENLNTLKREYEKLNEEVEKVNSIRGKIRKLNEAIKEEIRSLKNLPSDSYKPTLMNRIKIEAFKQELMEHSISLSSSNDFTQEMRSLKLAIAKKSNDILTLRSEVASIDKKIEKRKLFTRFDLPKLRDTLKILESLTGVRFLKFSKATLSIAFLQLDDLRVDINLANFKNNPLSSMKVMNDSNNDDMSYHLFTMLLKNVEAEHQDSMLSNLFFAMKKWRPLLKYIKLLKLLFPVKITQTEEEEALLQFKDYDRRNKTAFFYVISLVSFAQGVFSENGQIPMKVHISTQQDYSPSREVLSDRITHKISGVLPSFTKSRIHLEFT
As to B2, in assay [3], the binding entry was “binds”.

B3: Spc105^(BPM, 222::mCherry) (protein, UniProt P53148 1-917)
chain: MNVDERSRIGGREKDAGPGKGILKQNQSSQMTSSFLENPGVRIPTRIITKKEVLDGSNTTSRINTSNLQSMVKRRVSFAPDVTLHSFTFVPEQNNEIKEPAAAATSTNSPTKISSQEEPLVTSTQIDDARTEEKTAAEEDPDTSGMELTEPIVATPDSNKASQHDPTSMEMTEVFPRSIRQKNPDVEGESIESSQQIDDVEAVREETMELTAIHNVHDYDSISKDTVEGEPIDLTEYESKPYVPNSVSRSTGKSSDYSVERSNDKSDLSKSENKTNSSQPMEITDIFHADPQNPMSLHSDNNINNDGNEMELTQIQTNFDRDNHHIDESPSEKHAFSSNAAAALDTVSDYAASVTTPVKEAKDTSGEDNDGDLEMMEKMSPITFSDVDNKIGTRSNDVFTIEPGTEDTGMQTATDDEEDGENVDDNGNKIVEKTRLPEIDKEGQSGIALPTQDYTLREFINEVGVGFLDTKLIDDLDKKVNFPLNSFNFVENQRIDNVFSAFYIDIPILEVEAFRCKELWRSINESKDKFKDFEAQIDKSHPPLLLQEYFSSDEKMKQLMRDQLQLVKGYSKLEAAMEWYEWRKKQLNGLELILAENLNTLKREYEKLNEEVEKVNSIRGKIRKLNEAIKEEIRSLKNLPSDSYKPTLMNRIKIEAFKQELMEHSISLSSSNDFTQEMRSLKLAIAKKSNDILTLRSEVASIDKKIEKRKLFTRFDLPKLRDTLKILESLTGVRFLKFSKATLSIAFLQLDDLRVDINLANFKNNPLSSMKVMNDSNNDDMSYHLFTMLLKNVEAEHQDSMLSNLFFAMKKWRPLLKYIKLLKLLFPVKITQTEEEEALLQFKDYDRRNKTAFFYVISLVSFAQGVFSENGQIPMKVHISTQQDYSPSREVLSDRITHKISGVLPSFTKSRIHLEFT
B3: in assay [3], the binding entry is “binds”.
